Results deposited as PubChem BioAssay AID504786 (Drosophila RNAi Screening Center, 2011).

Assay: 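Knock-downs reducing HIF reporter induction by the iron chelator DFO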 (primary screen)
Cell system: Drosophila S2 cells with a stable HIF luciferase reporter
Knock-down reagent: long dsRNA against Drosophila genes, about 0.2 µg dsRNA per well of a 384-well plate
Duration: three days of knock-down, then 20 h of DFO before reading
Treatment: desferrioxamine (DFO) at 100 µM, an iron chelator that mimics hypoxia, for 20 h
Detection: 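Firefly luciferase driven by the mouse ldh-a hypoxia-response element, measured after 20 h of 100 µM DFO; z-scores per plate, higher means more signal lost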
Direction: z-score: higher = stronger loss of HIF reporter signal
The screen tested about 21,000 reagents; below is a random part of those with a known target gene and a result. 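Primary screen; positive scores mean lost reporter signal, so the sign may be inverted from the usual convention.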 Names joined by + are all predicted targets of the reagent. Reagent sequences are not shown.

target,dsRNA,"z-score, replicate 1","z-score, replicate 2"
CG12016 + Dpm2,DRSC08224,-0.1,0.5
CG31161,DRSC16144,-0.2,0.8
rk,DRSC03602,-0.3,-0.1
bdwf,DRSC15532,-0.2,-0.2
CG8173,DRSC20088,-0.3,-0.1
Bka,DRSC02757,0.2,1.5
CG9467,DRSC16498,-0.3,-0.6
AP-2sigma,DRSC15957,0.7,-0.5
SmD1,DRSC09800,2.7,5.7
NijA,DRSC10637,0.2,0.1
SmD3,DRSC07553,5.8,3.9
CG10413,DRSC02052,-0.5,0.1
CG11722,DRSC14358,-0.4,-0.6
Tsp42Er,DRSC06183,-0.4,-0.4
Fadd,DRSC14122,0.8,0
RIOK2,DRSC14413,0.3,-0.2
CG42812 + CG42811,DRSC15367,-0.5,0.6
CG42812 + CG42811,DRSC15368,-0.2,-0.7
lncRNA:bxd,DRSC13176,-0.2,0
CG30394,DRSC04074,-0.1,-0.6
CG30394,DRSC04260,-0.3,-0.4
CG16825,DRSC02526,-0.4,-0.3
CG31038,DRSC15051,-0.3,-0.3
CG31038,DRSC16326,-0.2,-0.1
CG31038,DRSC16327,-0.3,-0.4

Reformatted: results already given.
target | dsRNA | z-score, replicate 1 | z-score, replicate 2
CG9467 | DRSC16498 | -0.3 | -0.6
AP-2sigma | DRSC15957 | 0.7 | -0.5
SmD1 | DRSC09800 | 2.7 | 5.7
NijA | DRSC10637 | 0.2 | 0.1
SmD3 | DRSC07553 | 5.8 | 3.9
CG10413 | DRSC02052 | -0.5 | 0.1
CG11722 | DRSC14358 | -0.4 | -0.6

The list goes on:
target,dsRNA,"z-score, replicate 1","z-score, replicate 2"
Tim10 + CG42497,DRSC04664,-0.2,-0.2
nmdyn-D7,DRSC17016,-0.3,-0.4
CG12499,DRSC14521,2.3,3.8
Plc21C,DRSC00773,-0.3,-0.3
CG14607,DRSC12551,0.3,0.6
Cht6,DRSC18001,-0.2,-0.5
Cht6,DRSC18002,-0.2,1
Cht6,DRSC18253,-0.3,-0.5
Mipp1,DRSC11223,-0.2,-0.2
CG14882,DRSC15006,-0.3,-0.7
tld,DRSC17084,-0.3,-0.5
imd,DRSC05928,-0.1,0
CG7330,DRSC10813,-0.3,-0.5
CG7330,DRSC10814,-0.3,1.4
msl-2,DRSC00829,-0.1,1
CG6685,DRSC10695,-0.3,-0.3
CG33557,DRSC17854,-0.4,0.1
Ir60a,DRSC04212,-0.2,-0.5
CG5938,DRSC15923,-0.3,0
CG10911,DRSC06008,-0.5,-0.3
BEAF-32,DRSC05927,-0.3,0
CG12003,DRSC08214,-0.4,-0.3
CG42507 + Trl,DRSC09325,-0.2,-0.2
CG42507 + Trl,DRSC11308,1.5,4.5
Smvt,DRSC15426,-0.3,0.1
velo,DRSC08841,0.5,-0.5
velo,DRSC09698,-0.1,-0.5
CG3348,DRSC15480,-0.3,0.2
CG16989,DRSC18535,-0.2,-0.7
CG30423,DRSC04013,0,0
ppk14,DRSC03238,0,-0.7
